These are yes or no findings as the source states them, for the method shown. Some results given as binding are weak or reduced against the parent protein; the word gives no strength.
Molecular target: T1, IL-5Rα (immobilised in the SPR competition assay) (Mus musculus (Mouse)) (UniProt P21183)
T1 sequence: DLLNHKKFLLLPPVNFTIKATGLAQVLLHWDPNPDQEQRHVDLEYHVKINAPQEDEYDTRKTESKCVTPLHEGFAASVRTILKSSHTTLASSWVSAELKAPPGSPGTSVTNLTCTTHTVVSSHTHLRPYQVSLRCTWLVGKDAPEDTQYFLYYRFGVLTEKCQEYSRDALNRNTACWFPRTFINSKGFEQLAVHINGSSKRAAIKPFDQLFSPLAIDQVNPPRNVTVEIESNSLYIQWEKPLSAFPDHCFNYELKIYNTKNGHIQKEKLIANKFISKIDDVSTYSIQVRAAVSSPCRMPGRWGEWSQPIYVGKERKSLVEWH
Experiment: SPR, IL-5Rα coated, IL-5 injected [c]

B1: mouse IL-5 (ligand, UniProt P04401 21-133, looked up)
chain: MEIPMSTVVKETLTQLSAHRALLTSNETMRLPVPTHKNHQLCIGEIFQGLDILKNQTVRGGTVEMLFQNLSLIKKYIDRQKEKCGEERRRTRQFLDYLQEFLGVMSTEWAMEG
For B1, the binding was “binds”.

From patent US20200399382A1 (ARGENX, published 2020)
